The record followed here is article PMC11223475.

No constants are given. Whether binding was seen depends on the method and setting. Binding can be weak; no strength is given. Tags and fused reporters may be left off the sequences shown.

In this assay the target is Bacillus megaterium gas vesicle (GV) shell composed of GvpB (Bacillus megaterium). The assay is described as follows: flow cytometry of isolated gas vesicles; GvpC^eGFP coexpressed simultaneously with wt-GVs, GVs isolated and analysed. (In general: A flow cytometer gives signals particle by particle.)

B1: GvpC^eGFP coexpressed with wt-GVs (GvpC from Anabaena flos-aquae with C-terminal eGFP) (protein, UniProt P09413 1-193)
chain: MISLMAKIRQEHQSIAEKVAELSLETREFLSVTTAKRQEQAEKQAQELQAFYKDLQETSQQFLSETAQARIAQAEKQAQELLAFHKELQETSQQFLSATAQARIAQAEKQAQELLAFYQEVRETSQQFLSATAQARIAQAEKQAQELLAFHKELQETSQQFLSATADARTAQAKEQKESLLKFRQDLFVSIFG
B1: the binding entry is listed as “binds”.
